{"source": "paper PMC12282580", "about": "(RSC Advances, 2025)", "test_system": "SW620 cells (colon cancer)", "experiment": "Cytotoxicity assay", "assay_type": "cell-based", "settings": "Homo sapiens, SW-620, 48 h, read-out: Cytotoxicity (IC50) SW620", "data": [{"smiles": "O=C(CCCCCCC(=O)Nc1ccccc1)NO", "note": "[SAHA, suberoylanilide hydroxamic acid, reference compound]", "values": [{"measurement": "IC50", "result": "2080 ± 350", "unit": "nM"}]}]}
